Primary screen of a compound library

The values are deposited in ChEMBL (CHEMBL3988442, “University of Dundee, Small-Polar-MMV Screening Library” (2021)).

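Assay of Toxoplasma gondii numbers, read through their beta-galactosidase reporter with a colour substrate. Concentration: 10 µM. The record gives no direction; the compounds picked for IC50 retests had high values, so higher reads as fewer parasites. Size under these conditions: about 67,000 compounds, about 260 of them at 50% or above in at least one test.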

Values are the deposited “Percent Effect”, in %. The record does not define 0% and 100%; most values in the screen are far below 50% and negative numbers occur (in some assays of this library far below -100). Compounds were drawn at random from those tested, without regard to their results.

SMILES | Percent Effect
CCS(=O)(=O)N1CCOC2(CCCN(c3cccc(C#N)c3)C2)C1 (stereo unspecified) | -5.746
Cc1ccc(Oc2ncccc2C(=O)N(C)CCCN(C)C)cc1 | 16.32
Cc1nc[nH]c1-c1nccn1-c1ccc(C(N)=O)c(N2CCCC2)c1 | 20.94
NC(=O)c1cnn2c1NCC(CNCCc1ccco1)C2 (stereo unspecified) | -25.97
Cc1nnc(N2CCOC(C)(C(=O)N(C)C)C2)c2ccccc12 (stereo unspecified) | -15.78
CC(C)N1CCC(C(=O)N(C)CC(=O)c2ccc(O)cc2)CC1 | 5.471
CCC(=O)Nc1cccc(C(=O)NCCC2=CSC3=NCCCN23)c1 | -14.17
COc1cc(N2CCC3(CCN(C(=O)c4cccnc4)CC3)C2)ncn1.O=C(O)C(F)(F)F | 0
CN(Cc1cc(Br)cn1C)C(=O)c1cc(Cl)ccn1 | -8.048
COc1cccc(OC2CN(C(=O)c3cc(CC(C)C)nn3C)C2)c1 | -0.7493
COc1ccc2[nH]cc(C(=O)N3C[C@@H](O)[C@H](NS(C)(=O)=O)C3)c2c1 | -0.7752
COc1cccc2c1OCC(NC(=O)NC1CCN(C3CC3)CC1)C2 (stereo unspecified) | 1.559
CCS(=O)(=O)N1CCCN(CCCOC)CC1 | -22.03
Cc1cc(C)n(CC2CCCN2C(=O)c2nccc3ccccc23)n1 (stereo unspecified) | 9.019
CCc1nc2c(c(C)c(C)n2Cc2cccnc2)c(N)c1C | 11.7
Cc1cc(NCCCc2c(C)noc2C)nc(N)n1 | 2.117
Cc1cnn(CCNCc2nnc(Cc3ccccc3)o2)c1 | 4.308
[H][C@@]12CNC[C@]1([H])[C@H]2CN1CCC(c2nnc(CN(C)CCO)n2C)CC1 | 2.261
COc1ccc(CNC(c2cccc(F)c2)c2cnn(C)c2)cc1 (stereo unspecified) | 6.503
Cn1cc(CNCC2(N3CCCCC3)Cc3ccccc3C2)cn1 | -4.388
Cc1ccc(NC(=O)N2CCCC(O)(CO)CC2)cc1Cl (stereo unspecified) | 5.692
Cc1nnc(C(NS(=O)(=O)c2cc(F)c(C)cc2F)C(C)C)[nH]1 (stereo unspecified) | -4.318
Cc1ccc(Cl)c(NC(=O)c2cccc(CN3CC[C@H](O)C3)c2)c1 | -26.52
O=C(CN1CCOC(Cn2cccn2)C1)NCCc1cccs1 (stereo unspecified) | -10.11
CS(=O)(=O)Cc1ccc(CNC(=O)c2cccnc2O)cc1 | -3.768
CCC(CC)C(=O)NCC1(NC(C)c2ccccc2)CCOCC1 (stereo unspecified) | -2.512
CCOC(=O)CN1CC(c2nc(-c3ccsc3)no2)C1.O=C(O)C(=O)O | -6.724
O=C(c1cnco1)N1CCC(Cc2ccc3ncccc3c2)CC1 | 18.74
c1cnn(Cc2ccc(CN3CCC4(CCNCC4)C3)cc2)c1 | 1.054
Cc1ccccc1Cc1nc(CSc2nnc(N)n2C2CC2)no1 | 3.061
COc1ccccc1OC1CN(C(=O)CN(C)Cc2ccncc2)C1 | 8.048
CC(CCNC(=O)NCCc1ccncc1)c1ccccc1 (stereo unspecified) | -3.633
CC(C)c1n[nH]c(C2CN(C(=O)C3=COCC3)CCO2)n1 (stereo unspecified) | -0.4394
Cc1ccc(CN2CCc3c(CN4CCCC4)n[nH]c3C2)s1.O=C(O)C(F)(F)F.O=C(O)C(F)(F)F | 7.979
Cc1nc(C#N)c(N2CCC(c3nc(-c4ccccc4)no3)CC2)o1 | 3.586
CN(C)c1nc2c(c(N(C)Cc3n[nH]c4c3CCCC4)n1)CCNCC2 | -46.99
NC(=O)c1ccc(CN2CCCC(N3CCCC3)C2)cc1 (stereo unspecified) | 2.302
Cc1cccnc1C(=O)N1CCCC(Cc2cncc3ccccc23)C1 (stereo unspecified) | 2.924
CN1CCC(c2n[nH]c(=O)n2CC2CCCCC2)CC1 | 10.49
COCCCOc1ccc(C(=O)N(C)CCC(C)C)cn1 | -7.326
Cc1nccn1C1CCCN(C(=O)c2ccc(N(C)C)nn2)C1 (stereo unspecified) | 2.212
CC(C)(C)N1CC(C(=O)N2CCN(CCn3cccc3)CC2)CC1=O (stereo unspecified) | -1.322
Cc1cscc1C(=O)Nc1cncnc1N(C)C | 1.768
COCCN1CCCC1c1cccc2c1OCCO2 (stereo unspecified) | -11.63
CN(C)CC(C)(O)CNC(=O)Nc1sc2ccccc2c1Cl (stereo unspecified) | 2.027
CCCc1nc2c(c(C)c(C)n2Cc2ccncc2)c(N)c1CC | -0.599
O=C(O)C(F)(F)F.O=C(O)C(F)(F)F.c1cncc(COCc2n[nH]c3c2CN(Cc2ccco2)C3)c1 | -5.169
CCc1nc(CCNC(=O)Nc2ccc(C(=O)NC)cc2)cs1 | -2.558
[H][C@@]12CCN(c3ccc(C)nn3)C[C@]1(C(=O)NCC1CC1)CCO2 | -10.35
COCC(=O)NCCCn1ncc2c(C)cccc21 | 3.03
Cc1nn(C)c(N(C)C)c1CNCc1ccnc(N2CCCCC2)c1 | 4.443
Cc1cc(NC(=O)CN2CCCC2c2noc(C)n2)n(C(C)(C)C)n1 (stereo unspecified) | -2.84
O=C(O)C(F)(F)F.O=C1NCCN(CC2CC2)C12CCN(Cc1ccccc1)CC2 | -10.53
O=C(NCCc1ccn(-c2ccc(F)cc2)n1)C1CCCOC1 (stereo unspecified) | 10.02
[H][C@@]12C[C@H](C(=O)N3CCCC3)[C@@]([H])(CN(C(=O)NCc3ccccc3C)C1)O2 | -4.787
COc1ccc(/C=C/CN2CCC3(CC2)CN(C)C(=O)O3)cc1 | 1.095
O=C(O)c1ccc(S(=O)(=O)Nc2c(F)cccc2-n2cccn2)cc1 | 1.512
O=C(c1ccncc1)N1CCCC(c2cc(C(F)F)n3ncnc3n2)C1 (stereo unspecified) | 0.2919
COc1ccc(OC)c(-c2nc(CN(C)Cc3nonc3C)c(C)o2)c1 | 7.876
O=C(CNC(=O)N1CCc2c([nH]c3ccc(Cl)cc23)C1)N1CCOCC1 | 1.554
O=C(C1CCCO1)N1CCC(n2cc(-c3ccc(F)cc3)nn2)CC1 (stereo unspecified) | -3.84
[H][C@@]12CCN(C(=O)C3CCOCC3)[C@]1([H])CCC(=O)N2CCOC | 1.614
COc1cccc2c(=O)n(CCN3CCNCC3)cnc12 | -0.4552
Cc1ccccc1CN1CCCN(S(=O)(=O)N(C)C2CCCCC2)CC1 | 6.772
O=C1NCc2ccccc2CC12CCCN(CCCc1ccccc1)C2 (stereo unspecified) | 2.985
Cc1ccc(OCC2CCCN(C(=O)CCn3ccccc3=O)C2)cc1 (stereo unspecified) | 24.28
NC(=O)c1c(-c2ccc(Cl)cc2Cl)csc1NC(=O)CCC(=O)O | 5.571
Cc1noc(C)c1CN1Cc2cn(C)nc2C(COCC2CC2)C1.O=C(O)C(F)(F)F.O=C(O)C(F)(F)F (stereo unspecified) | 2.022
CCc1nc(C)c(CN2CCOC(Cc3cccc4ccccc34)C2)[nH]1 (stereo unspecified) | -6.4
O=C(NCC1(c2ccc(F)cc2)CCCC1)N1CCOC(CO)C1 (stereo unspecified) | -1.53
O=C(CCc1cc2n(n1)CCCNC2)N1CCC(N2CCOC2=O)CC1 | -4.869
O=C(CN1C(=O)CCC1=O)NCc1nn(C2CCCC2)c2c1CCCC2 | 10.17
CCCN(Cc1nccn1C)C(=O)C(CC)Nc1cccc(OC)c1 (stereo unspecified) | 2.133
CCN1C(=O)C2(CCOCC2)c2cc(NC(=O)c3csnn3)ccc21 | -2.833
COc1cc(CNC(C)c2cccc(Cl)c2)cc(OC)c1OC (stereo unspecified) | 4.419
N#Cc1cccnc1N1CCCC(CO)(Cc2ccc(F)cc2)C1 (stereo unspecified) | 24.5
CCOc1nnc(CN2CCOC(CNc3cccnn3)C2)s1 (stereo unspecified) | 1.059
Cc1cnn(CC(=O)N2CCCN(c3nc(C)cs3)CC2)c1 | -4.885

Once more, the final 4:

{"smiles": "COc1cc(CNC(C)c2cccc(Cl)c2)cc(OC)c1OC", "stereo": "stereo unspecified", "Percent Effect": 4.419}
{"smiles": "N#Cc1cccnc1N1CCCC(CO)(Cc2ccc(F)cc2)C1", "stereo": "stereo unspecified", "Percent Effect": 24.5}
{"smiles": "CCOc1nnc(CN2CCOC(CNc3cccnn3)C2)s1", "stereo": "stereo unspecified", "Percent Effect": 1.059}
{"smiles": "Cc1cnn(CC(=O)N2CCCN(c3nc(C)cs3)CC2)c1", "Percent Effect": -4.885}